Test results as given in publication PMC3978604 (Arthritis Research & Therapy, 2013).

Tests used:
[1] = system: human PBMCs, CD3+ T cells; test: IL-2-induced STAT5 phosphorylation in CD3+ T cells (flow cytometry); type: cell-based; conditions: T-cell
Source text: (§1) For IL-2-induced STAT5 phosphorylation, cells were stained with FITC anti-human CD3 and Alexa Fluor 647 anti-STAT5(pY694), and quantitated pSTAT5 fluorescence intensity gated on the CD3^+ T-cell population. For IFNγ-induced STAT1 phosphorylation, cells were stained with PE anti-human CD14 (Beckman Coulter, Indianapolis, IN, USA) and Alexa Fluor 647 anti-STAT1 ([…]), and quantitated pSTAT1 fluorescence intensity gated on CD14^+ monocytes/macrophages.

[2] = system: human PBMCs, CD14+ monocytes; test: IFNγ-induced STAT1 phosphorylation in CD14+ monocytes (flow cytometry); type: cell-based; conditions: Monocyte
Source text: as §1

**Q.** How did the IC50 [1] turn out when `C[C@@H]1CCN(C(=O)CC#N)C[C@@H]1N(C)c1ncnc2[nH]ccc12` [tofacitinib, reference compound] was run?
**A.** 0.031 ± 0.013 µM

**Q.** And the IC50 [2]?
**A.** 0.081 ± 0.05 µM
